Data reported in article PMC5749289 (Oxidative Medicine and Cellular Longevity, 2017).

Assay: general procedure: Fmoc solid-phase peptide synthesis; 2-chloro trityl resin; DEPBT/DIPEA (chain assembly); PyBOP/DIPEA (macrocyclisation)
Conditions: cyclisation step

Compared with “HELM PEPTIDE1{L.L.[meL].W.[meL]}$PEPTIDE1,PEPTIDE1,1:R1-5:R2$$$V2.0 (SMILES CC(C)C[C@@H]1NC(=O)[C@H](CC(C)C)N(C)C(=O)[C@H](Cc2c[nH]c3ccccc23)NC(=O)[C@H](CC(C)C)N(C)C(=O)[C@H](CC(C)C)NC1=O)”, cyclo(Nal-N-Me-Leu-Leu-Leu-N-Me-Leu) is higher in cyclisation yield: 55.5% for the first, 58.5% for the second.

In the case of cyclo(Phe-N-Me-Leu-Leu-Leu-N-Me-Leu), the cyclisation yield is reported as 60.9%.
